In all, about 2,000 compounds went through this assay and about 45 (2%) were called active.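 Rule for the calls: active = inhibition above the screen-wide mean inhibition plus 3 SD (cut at about 44% in these data); inactive = the rest.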 This is one part of the list.
molecular target: Perilipin-1 (Homo sapiens) + 1-acylglycerol-3-phosphate O-acyltransferase ABHD5 (Homo sapiens) (UniProt O60240+Q8WTS1); assay: ABHD5-PLIN1 interaction inhibitors, pilot screen, cell lysate, split luciferase complementation, luminescence, NIH validation set (AID 493027);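 note: 0% = DMSO wells with the 100% control not disclosed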; conditions: split G. princeps luciferase complementation, 4 h; at 7.9 µM, hits give high values

Amino acid sequences for entries named in this document (tags omitted). A change or cut given only in a name is not applied to a line headed by its entry.
UniProt O60240: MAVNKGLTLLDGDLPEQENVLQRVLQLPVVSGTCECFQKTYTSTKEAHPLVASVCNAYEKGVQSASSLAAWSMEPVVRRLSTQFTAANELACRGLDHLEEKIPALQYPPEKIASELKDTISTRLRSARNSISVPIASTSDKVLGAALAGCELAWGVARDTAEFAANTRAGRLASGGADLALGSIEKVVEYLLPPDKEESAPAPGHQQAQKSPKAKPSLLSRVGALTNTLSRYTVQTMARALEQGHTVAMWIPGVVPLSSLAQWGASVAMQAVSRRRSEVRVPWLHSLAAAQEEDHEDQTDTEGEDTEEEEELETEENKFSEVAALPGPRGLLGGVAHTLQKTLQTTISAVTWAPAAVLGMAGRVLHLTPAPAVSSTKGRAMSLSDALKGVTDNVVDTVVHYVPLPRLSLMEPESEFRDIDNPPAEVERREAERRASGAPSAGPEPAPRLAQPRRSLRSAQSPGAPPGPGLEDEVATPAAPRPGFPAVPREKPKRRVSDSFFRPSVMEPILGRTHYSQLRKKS
UniProt Q8WTS1: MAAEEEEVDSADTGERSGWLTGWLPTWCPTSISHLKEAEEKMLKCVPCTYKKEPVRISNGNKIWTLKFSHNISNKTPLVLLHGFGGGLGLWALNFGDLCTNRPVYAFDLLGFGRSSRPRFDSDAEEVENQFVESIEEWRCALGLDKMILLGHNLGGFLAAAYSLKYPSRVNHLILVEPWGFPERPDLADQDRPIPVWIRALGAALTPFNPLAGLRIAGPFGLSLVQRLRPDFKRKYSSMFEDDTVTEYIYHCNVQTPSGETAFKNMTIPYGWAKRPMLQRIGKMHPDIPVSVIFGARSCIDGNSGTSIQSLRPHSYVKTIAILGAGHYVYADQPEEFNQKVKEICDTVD

Structure (SMILES)	inhibition
CCOCc1cc(C)[nH]c(=O)c1C#N	inactive: 2.72%
CC(=O)[C@H]1CC[C@H]2[C@@H]3C[C@H](C)C4=CC(=O)CC[C@]4(C)[C@H]3[C@@H](O)C[C@]12C	inactive: 7.25%
CC(C)CC1c2[nH]c3ccccc3c2CCN1C(=O)CCC(=O)N(C)C (centres undefined)	inactive: -7.63%
CCCCNC(=O)NS(=O)(=O)c1ccc(C)cc1	inactive: -10.7%
C[C@]12CC[C@@H]3c4cc(O)c(O)cc4CC[C@H]3[C@@H]1CC[C@@H]2O	inactive: 19%
COc1cccc2c(O)cc(=O)n(C)c12	inactive: -4.98%
COc1ccc2nc(NC(=O)Nc3ccccc3)sc2c1	inactive: -1.58%
COC(=O)c1cc(OC)c(OC)c(OC)c1[N+](=O)[O-]	inactive: 6.03%
CC(=O)Nc1cc(O)cc(O)c1	inactive: -10.7%
Cc1ccc(C(=O)NCCNC(=O)c2ccccc2)cc1	inactive: -6.98%
CNCCC(Oc1ccc(C(F)(F)F)cc1)c1ccccc1 (centres undefined)	inactive: -3.18%
Cc1nnc(SCC(=O)N2CCCC(C(=O)c3ccc(Cl)cc3)C2)o1 (centres undefined)	inactive: 2.47%
Cc1cc(C)c2c(CCl)cc(=O)oc2c1	inactive: 2.6%
Cc1coc2c1c(C)cc1oc(=O)c(Cc3ccccc3)c(C)c12	inactive: -3.62%
Cc1ccc2nc3c(cc(C(=O)NCC4CCCO4)c(=N)n3CCCOC(C)C)c(=O)n2c1 (centres undefined)	inactive: 6.09%
Fc1ccccc1CNCCC(Cc1ccccc1)c1ccc2c(c1)OCO2 (centres undefined)	inactive: -12.2%
CCC1CCc2c(sc(NC(=O)c3cccnc3)c2C(N)=O)C1 (centres undefined)	inactive: -0.06%
Cn1c([N+](=O)[O-])cnc1COC(N)=O	inactive: -13.3%
COc1cc(C(=O)CCN2CCC(c3ccccc3)C2)cc(OC)c1OC (centres undefined)	inactive: 16.9%
Cc1ccccc1-c1coc2cc(O)ccc2c1=O	inactive: 9.8%
COc1ccc(C(=O)Nc2ccc(OC)c([N+](=O)[O-])c2)cc1Br	inactive: 0.74%
COc1cc(C2Nc3ccccc3NC3=C2C(=O)CC(c2ccc(OC)c(OC)c2)C3)ccc1O (centres undefined)	inactive: 2.86%
CCOC(=O)C(=Cc1ccccc1OC)C(=O)OCC	inactive: 41.2%
Cc1cccc(C2=N/C(=C\c3cccnc3)C(=O)O2)c1	inactive: -12.9%

4 entries from above, set out differently:
Structure (SMILES),inhibition
COc1cc(C(=O)CCN2CCC(c3ccccc3)C2)cc(OC)c1OC (centres undefined),inactive: 16.9%
Cc1ccccc1-c1coc2cc(O)ccc2c1=O,inactive: 9.8%
COc1ccc(C(=O)Nc2ccc(OC)c([N+](=O)[O-])c2)cc1Br,inactive: 0.74%
COc1cc(C2Nc3ccccc3NC3=C2C(=O)CC(c2ccc(OC)c(OC)c2)C3)ccc1O (centres undefined),inactive: 2.86%

(further entries)

Structure (SMILES)	inhibition
COc1ccc(C2C(C(=O)c3ccco3)=C(O)C(=O)N2CC2CCCO2)cc1 (centres undefined)	inactive: -5.42%
CS(=O)c1ccccc1O (centres undefined)	inactive: 5.17%
COC(=O)c1ccc(COc2ccc3c(C)c(C)c(=O)oc3c2C)o1	inactive: 1.92%
Nc1cc(-c2ccncc2)c[nH]c1=O	active: 49%
O=C(CN1C(=O)C2CCc3[nH]c4ccccc4c3C2C1=O)N1CCCC1 (centres undefined)	inactive: -6.03%
CCOC(=O)c1cc2c(nc1N)CC(C)(CC)OC2 (centres undefined)	inactive: -4.67%
OC(CCN1CCCCC1)(c1ccccc1)C1CCCCC1 (centres undefined)	inactive: -6.29%
COc1ccc2c(c1)CC[C@@H]1[C@@H]2CC[C@]2(C)C(=O)CC[C@@H]12	inactive: -10.8%
O=C1OC(=O)C2C1[C@@H]1CC[C@H]2O1 (some centres undefined)	inactive: 0.42%
CCNC(=O)C(Cc1ccccc1)NC(=O)OCc1ccccc1 (centres undefined)	inactive: -7.63%
COc1ccc2c(CCNC(=O)c3ccc([N+](=O)[O-])cc3)c[nH]c2c1	inactive: -15.7%
Cc1cccc(Oc2coc3cc(OC(=O)c4cncc(Br)c4)ccc3c2=O)c1	inactive: 8.8%
CC[N+]1(CC)CC2=Cc3ccccc3CC2C1 (centres undefined)	inactive: -4.04%
C=C1C2(C(=O)Nc3ccc(SC(F)F)cc3)CCC(C2)C1(C)C (centres undefined)	inactive: -4.78%
COc1ccccc1Oc1c(C)oc2c(CN3CCN(CCO)CC3)c(O)ccc2c1=O	inactive: 2.85%
COc1ccccc1N=CC1=C(O)CC(c2ccccc2)CC1=O (centres undefined)	inactive: 6.74%
COc1ccc(CNC(=O)C2CCCN2C)cc1OC (centres undefined)	inactive: -5.21%
COc1ccc(CNC(=O)c2cc3c(=O)n4ccccc4nc3n(Cc3cccnc3)c2=N)cc1	inactive: 7.05%
OCCOCCN1CCN(C(c2ccccc2)c2ccc(Cl)cc2)CC1 (centres undefined)	inactive: -3.65%
C[C@]12CCC(=O)C[C@@H]1CC[C@@H]1[C@@H]2CC[C@]2(C)C=CC[C@@H]12	inactive: -11.7%
COc1ccc(OC)c(NC2=C(Cl)C(=O)N(Cc3ccccc3)C2=O)c1	inactive: 13.1%
CCCC(=O)Nc1ccccc1NC(C)=O	inactive: -6.46%
CCCCC(=O)O[C@]1(C(=O)CO)CC[C@H]2[C@@H]3CCC4=CC(=O)CC[C@]4(C)[C@H]3[C@@H](O)C[C@@]21C	inactive: 4.33%
Cc1oc2c(C)c3oc(=O)c4c(c3cc2c1C)CCCC4	inactive: -1.79%

Structure (SMILES)	inhibition
CCc1cccc2c3c([nH]c12)C(CC)(CC(=O)O)OCC3 (centres undefined)	inactive: -14.7%
CC(C)CCc1noc(CN2CCC(CCN3CCCC3=O)CC2)n1	inactive: -6.17%
CN(C)CC/C=C1\c2ccccc2COc2ccccc21	inactive: -3.55%
COC(=O)c1cc(-c2ccc(C)o2)nc2ccccc12	active: 78%
CC1(C)c2ccccc2N2CC(=O)NC21/C=C/c1ccco1 (centres undefined)	active: 47.4%
CC(C)NS(=O)(=O)c1ccc(OCC(=O)Nc2cccc(F)c2)cc1	inactive: -1.78%
CCOC(=O)C1(Cc2cccc(Cl)c2)CCCN(C2CCN(C(C)=O)CC2)C1 (centres undefined)	inactive: -7.42%
O=C(Nc1ccc(F)c([N+](=O)[O-])c1)c1ccc2c(c1)OCCO2	inactive: -18.4%
COC(=O)c1ccc(OCCCCN2CC(C)OC(C)C2)cc1 (centres undefined)	inactive: -0.75%
Cc1ccc2c(c1)C1OCCC1C1N2C(=O)C2C(C(=O)O)C3C=CC21O3 (centres undefined)	inactive: -9.48%
CC(C)=CCC/C(C)=C/CC/C(C)=C/CC/C(C)=C/CC1=C(C)C(=O)c2ccccc2C1=O	inactive: 18.4%
CCC(=O)Nc1ccc(C(=O)N2CCN(C(=O)c3ccco3)CC2)cc1	inactive: -11.5%
C[C@]12CC[C@@H]3c4ccc(O)cc4CC[C@H]3[C@@H]1C[C@@H](O)[C@@H]2O[C@@H]1O[C@H](C(=O)O)[C@@H](O)[C@H](O)[C@H]1O	inactive: 5.71%
Cc1ccc2c(c1)C1(C(=O)N2)N2CCCC2C(C(=O)c2ccc3ccccc3c2)C12C(=O)Nc1ccccc12 (centres undefined)	inactive: -2.89%
CCOC(=O)[C@H](CCc1ccccc1)N[C@@H](C)C(=O)N1CCC[C@H]1C(=O)O	inactive: -9.11%
O=C(Nc1ccc(N2CCOCC2)cc1)c1ccc(-c2ccccc2[N+](=O)[O-])o1	inactive: 2.24%
C=C(C)c1nc2cc(OC)c(OC)cc2c(=O)o1	inactive: -7.25%
CC(C)(S)[C@@H](N)C(=O)O	inactive: -2.59%
CC1=C/C(=N\N=C2\NC(=O)C(CC(=O)Nc3ccccc3F)S2)CC(C)(C)C1 (centres undefined)	inactive: -8.05%
COc1ccc(C(=O)Nc2ncc3c(n2)CC(C)CC3=O)cc1 (centres undefined)	inactive: -5.13%
CC(=O)Oc1ccc2c(=O)c(Oc3ccccc3[N+](=O)[O-])coc2c1	inactive: 4.63%
CC(=O)O[C@H]1CSC[C@H]1NC(=O)c1ccccc1	inactive: -8.83%
O=C1CCCC(=O)C1=Cc1c[nH]c2ccccc12	inactive: -0.1%
COC(=O)c1cc(-c2c(C)oc3cc(OC)ccc3c2=O)c(C)o1	inactive: -1.1%

Structure (SMILES)	inhibition
COc1ccc(-c2cc(=O)oc3c(C)c(O)c(CN(C)C)cc23)cc1	inactive: -2.72%
COC(=O)c1[nH]c2ccccc2c1NC(=O)CN1CCN(C/C=C/c2ccccc2)CC1	inactive: 12.3%
C[C@H](NC(=O)NCCc1ccccc1)C(=O)O	inactive: -7.43%
O=Cc1ccc(O)c(O)c1	inactive: 1.17%
CN1CCCN=C1COC(=O)C(O)(c1ccccc1)C1CCCCC1 (centres undefined)	inactive: -2.75%
CC(C)(C)C(=O)NCCCNc1ccc([N+](=O)[O-])cc1	inactive: -4.54%
Cc1cc(C)cc(Nc2nc3c([nH]2)c(=O)n(C)c(=O)n3C)c1	inactive: -3.79%
COc1ccc(C(C)=O)c2c1OCCO2	inactive: -4.08%
C=CCC1(Cl)C(=O)C(Cl)=C(N2CCOCC2)C1(OC)OC (centres undefined)	inactive: -5.35%
CCC(=O)c1ccc(O)cc1	inactive: -3.72%
Cn1c(=S)n(C)c2ccccc21	inactive: -7.95%
CSCCC(NC(C)=O)C(=O)Oc1ccc2c3c(c(=O)oc2c1)CCCC3 (centres undefined)	inactive: 4.14%
CC(C)(Sc1cc(C(C)(C)C)c(O)c(C(C)(C)C)c1)Sc1cc(C(C)(C)C)c(O)c(C(C)(C)C)c1	inactive: -5.95%
CC(=O)O[C@H]1C[C@@]2(C)[C@@H](C[C@@H](O)[C@H]3[C@@]4(C)CC[C@@H](O)[C@@H](C)C4CC[C@@]32C)/C1=C(\CCC=C(C)C)C(=O)O (some centres undefined)	inactive: -14.2%
Cc1oc(/C=N/NC(=O)CC2(C)OCCO2)cc1Br	inactive: -2.12%
CCOc1ccc(N2C(=O)CC(NCCNc3ccc([N+](=O)[O-])cn3)C2=O)cc1 (centres undefined)	inactive: -2.7%
Clc1cc(-c2ccc(/C=N/n3cnnc3)o2)ccc1Br	inactive: 13.8%
COc1ccc(-c2c(NC(=O)c3ccco3)n(C)c3ccccc3c2=O)cc1	inactive: -10.8%
OC(CCCN1CCC(O)(c2ccc(Cl)cc2)CC1)c1ccc(F)cc1 (centres undefined)	inactive: -5.52%
COc1ccccc1N1CCN(CC(O)COc2cccc3ccccc23)CC1 (centres undefined)	inactive: -9.03%
COc1ccc(NC(=S)N2CCN(CCN3C(=O)c4cccc5cccc(c45)C3=O)CC2)cc1	inactive: 4.83%
CN1CCC(=C2c3ccccc3CC(=O)c3sccc32)CC1	inactive: -0.73%

2 consecutive records from above, for reference:
Structure (SMILES)	inhibition
CC(=O)O[C@H]1C[C@@]2(C)[C@@H](C[C@@H](O)[C@H]3[C@@]4(C)CC[C@@H](O)[C@@H](C)C4CC[C@@]32C)/C1=C(\CCC=C(C)C)C(=O)O (some centres undefined)	inactive: -14.2%
Cc1oc(/C=N/NC(=O)CC2(C)OCCO2)cc1Br	inactive: -2.12%

— PubChem BioAssay AID493027 (The Scripps Research Institute Molecular Screening Center, 2011)
